# Experimental data: PubChem BioAssay AID1053208 (Peter MacCallum Cancer Centre, 2014)
# Screen: 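Find knock-downs that sensitise mouse osteosarcoma cells to doxorubicin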 (primary screen)
# Cells: mouse osteosarcoma cells, early-passage culture from an engineered mouse model of fibroblastic bone tumour
# Reagents: siRNA pool against mouse genes, 40 nM
# Time to read-out: about 120 h (48 h before drug, then 72 h with drug)
# Challenge: doxorubicin 100 nM for 72 h, roughly 30-40% inhibitory dose
# Measured: 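Viability read as ATP luminescence after 72 h of 100 nM doxorubicin or none, duplicate wells averaged, scaled to non-targeting siRNA, then expressed as robust z-scores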
# Reading the numbers: viability z-score with doxorubicin: higher = more viable cells under doxorubicin; viability z-score without drug: higher = more viable cells with knock-down alone
# Active means: 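Called active if knock-down leaves viability unchanged without drug (z within -2 to 2) but lowers it with doxorubicin (z at or under -2)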
# This is an unselected part of about 17,000 reagents. 788 of them (4.7%) were called active. 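Calls rest on z-score classes alone; an extra cut-off of viability at most 70% of control was not applied to them.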 A reagent listed more than once was tested more than once; the source does not tell the runs apart. Not all columns of the deposit are shown.
target gene,combined z-score class,viability z-score with doxorubicin,viability z-score without drug,activity call
Ttll12 (GeneID 223723),no change with or without drug,-0.22,-0.34,inactive
Tcta (GeneID 102791),no change with or without drug,-1.8,-0.17,inactive
Nup214 (GeneID 227720),low cell count with and without drug,-3.04,-3.2,inactive
Or5d40 (GeneID 258524),no change with or without drug,-0.22,-0.51,inactive
Peli2 (GeneID 93834),no change with or without drug,-1.35,-0.67,inactive
Map3k10 (GeneID 269881),no change with or without drug,-0.22,-0.34,inactive
Prpf31 (GeneID 68988),low cell count without drug only,-1.57,-2.02,inactive
Socs6 (GeneID 54607),no change with or without drug,0.22,-0.84,inactive
Odc1 (GeneID 18263),no change with or without drug,0.9,0.17,inactive
Ifna9 (GeneID 15972),no change with or without drug,-0.22,-1.01,inactive
Fam76b (GeneID 72826),no change with or without drug,-0.45,1.01,inactive
Krt32 (GeneID 16670),no change with or without drug,-0.9,-1.18,inactive
Cyc1 (GeneID 66445),low cell count without drug only,0.9,-2.19,inactive
Or4k77 (GeneID 228443),no change with or without drug,-1.57,-1.35,inactive
Bcl11a (GeneID 14025),no change with or without drug,0.22,0,inactive
Rgs17 (GeneID 56533),no change with or without drug,-0.45,0.17,inactive
Fam220a (GeneID 67238),no change with or without drug,1.57,0.34,inactive

3 entries already listed, ordered by “viability z-score with doxorubicin”, low to high.
target gene,combined z-score class,viability z-score with doxorubicin,viability z-score without drug,activity call
Or4k77 (GeneID 228443),no change with or without drug,-1.57,-1.35,inactive
Krt32 (GeneID 16670),no change with or without drug,-0.9,-1.18,inactive
Cyc1 (GeneID 66445),low cell count without drug only,0.9,-2.19,inactive

The list goes on.
target gene,combined z-score class,viability z-score with doxorubicin,viability z-score without drug,activity call
Rxylt1 (GeneID 216395),low cell count with doxorubicin only,-2.7,0,active
Fabp2 (GeneID 14079),no change with or without drug,1.57,1.18,inactive
Mov10l1 (GeneID 83456),no change with or without drug,-0.34,-1.18,inactive
Tll1 (GeneID 21892),no change with or without drug,-1.12,-1.18,inactive
Pnpt1 (GeneID 71701),low cell count with and without drug,-2.36,-2.19,inactive
Tube1 (GeneID 71924),no change with or without drug,-1.8,-0.67,inactive
Adam19 (GeneID 11492),no change with or without drug,-0.22,0.51,inactive
Muc1 (GeneID 17829),low cell count without drug only,-1.8,-2.19,inactive
Akr1c13 (GeneID 27384),no change with or without drug,0.22,-0.17,inactive
Mcpt2 (GeneID 17225),no change with or without drug,1.12,-0.84,inactive
Ago3 (GeneID 214150),no change with or without drug,-0.22,0.51,inactive
Pgp (GeneID 67078),no change with or without drug,0.34,1.52,inactive
Rlbp1 (GeneID 19771),high cell count without drug only,1.12,2.87,inactive
6820408C15Rik (GeneID 228778),no change with or without drug,0.9,-0.34,inactive
Adrb2 (GeneID 11555),no change with or without drug,-0.67,1.52,inactive
Adrb2 (GeneID 11555),no change with or without drug,0,0.34,inactive
Dhrs9 (GeneID 241452),high cell count with doxorubicin only,2.25,0.34,inactive
